The text below walks through data of patent US20170248601A1 (MIT, published 2017).

Experiment [1] has as its target T1, ATP-trapped E171Q mutant of human TorsinA (residues 51-332) (human, UniProt O14656 51-332).
T1 construct: also called TorsinAEQ
T1 sequence: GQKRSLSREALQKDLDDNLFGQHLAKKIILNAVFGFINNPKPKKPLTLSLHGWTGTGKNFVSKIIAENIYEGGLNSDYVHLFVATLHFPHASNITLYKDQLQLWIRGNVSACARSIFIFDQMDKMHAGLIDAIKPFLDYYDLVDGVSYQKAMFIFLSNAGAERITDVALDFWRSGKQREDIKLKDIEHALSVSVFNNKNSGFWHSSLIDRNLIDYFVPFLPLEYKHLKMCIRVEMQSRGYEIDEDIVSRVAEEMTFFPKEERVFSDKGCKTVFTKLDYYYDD
The experiment can be described thus: co-expression and co-purification.

Experiment [2] deals with T2, His-tagged TorsinAEQ (residues 51-332) deltaMet304 (human, UniProt O14656 51-332).
T2 construct: Single-residue deletion, with '-' meaning deleted; not shown: N-terminal 3C-cleavable 10xHis-7xArg tag
T2 sequence: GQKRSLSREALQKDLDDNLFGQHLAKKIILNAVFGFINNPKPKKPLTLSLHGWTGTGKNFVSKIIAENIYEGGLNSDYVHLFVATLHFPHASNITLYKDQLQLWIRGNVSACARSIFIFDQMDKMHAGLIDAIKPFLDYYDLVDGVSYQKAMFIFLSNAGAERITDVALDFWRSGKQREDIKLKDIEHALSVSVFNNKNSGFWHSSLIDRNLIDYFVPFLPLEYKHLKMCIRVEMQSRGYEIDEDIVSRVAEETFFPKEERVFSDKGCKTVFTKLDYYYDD
The experiment can be described thus: Ni-affinity co-purification, co-expressed in bacteria without VHH-BS2, SDS-PAGE. The method, then:
(§1) For the non-structural analysis of TorsinA and LULL1 variants, the pETDuet-1-based expression plasmid was transformed into LOBSTR(DE3) RIL cells without co-expressing nanobody VHH-BS2. Ni²⁺-affinity purification was performed as described above and bound protein was eluted. Aliquots from the Ni²⁺-eluate and the total lysate were collected and analyzed by SDS-PAGE gel electrophoresis.

Experiment [3] has as its target T3, His-tagged TorsinAEQ (residues 51-332) deltaThr305 (human, UniProt O14656 51-332).
T3 construct: Single-residue deletion, with '-' meaning deleted; not shown: N-terminal 3C-cleavable 10xHis-7xArg tag
T3 sequence: T2 sequence with T254M
The description is as above. The method, then: as §1

Substitutions are numbered along the chain they refer to.

B1: luminal activation domain of human LULL1 (residues 233-470) (other)
chain: SSVNSYYSSPAQQVPKNPALEAFLAQFSQLEDKFPGQSSFLWQRGRKFLQKHLNASNPTEPATIIFTAAREGRETLKCLSHHVADAYTSSQKVSPIQIDGAGRTWQDSDTVKLLVDLELSYGFENGQKAAVVHHFESFPAGSTLIFYKYCDHENAAFKDVALVLTVLLEEETLEASVGPRETEEKVRDLLWAKFTNSDTPTSFNHMDSDKLSGLWSRISHLVLPVQPVSSIEEQGCLF
notes: Untagged and co-expressed with TorsinA from pETDuet-1; also called LULL1233-470
Turning to B1, the binding result in experiment [1] is “binds”; in experiment [2], “no binding”; in experiment [3], “no binding”.
